The results in this text go back to publication doi:10.1101/673657.

For the test, the target named is T1, Pib1-HA (S. cerevisiae) (UniProt Q06651).
T1 sequence: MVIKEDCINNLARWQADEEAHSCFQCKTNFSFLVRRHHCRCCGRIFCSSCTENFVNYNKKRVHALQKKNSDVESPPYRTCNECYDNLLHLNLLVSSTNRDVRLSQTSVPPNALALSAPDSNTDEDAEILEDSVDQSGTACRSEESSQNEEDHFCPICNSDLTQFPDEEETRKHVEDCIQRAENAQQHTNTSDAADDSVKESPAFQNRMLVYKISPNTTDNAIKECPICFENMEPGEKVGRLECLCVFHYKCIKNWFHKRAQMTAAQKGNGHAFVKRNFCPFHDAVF
Briefly: co-IP.

Results are given in words; binding and its absence hold for the method and conditions named. In cells and extracts the contact can be indirect. Some binding calls cover weakened binding; strength is not graded here. Tags and fused reporters may be left off the sequences shown.

B1: Rds2-FLAG (protein, UniProt P19541 1-446)
chain: MSANSGVKRASKAFKTCLFCKRSHVVCDKQRPCSRCVKRDIAHLCREDDIAVPNEMPSQHESSPNDNNIQGKYANKAHTGIPSDYQNEPVNKSGSTYGEELSPKLDSSLVNDTTSLLLPQQPVFVSENVGSEFSSLNEFLSMLENPLLTQTSLSSSSASNVHLENGSQTTQSPLEYQNDNRRDEIGVARQENRSPTIMSGSSNSISKGDKQDQEKEESRILANANENSAPTPKEQFFLTAADPSTEMTPEHRLKLVINAKLEAGLLKPYNYAKGYARLQDYMDKYMNQSSKQRILKPLSTIRPAFRTIARSLKDVDLVLVEESFERMLLSYDRVFTSMSMPACLCRRTGEIYRANKEFASLVDCTVDDLRDGKLAIYELMTEESAVNFWEKYGSIAFDKGQKAVLTSCSLRTKDGIRKRPCCFSFTIRRDRYNIPICIVGNFIPLS
Turning to B1, the binding entry is “binds”.
